Test results taken from PMC4575479, “Ascaris lumbricoides β carbonic anhydrase: a potential target enzyme for treatment of ascariasis” (Parasites & Vectors, 2015).

Protein sequences, listed by entry. Tags and fused reporters are not part of them. Residues count along the entry.
UniProt F1LE18, 1-259: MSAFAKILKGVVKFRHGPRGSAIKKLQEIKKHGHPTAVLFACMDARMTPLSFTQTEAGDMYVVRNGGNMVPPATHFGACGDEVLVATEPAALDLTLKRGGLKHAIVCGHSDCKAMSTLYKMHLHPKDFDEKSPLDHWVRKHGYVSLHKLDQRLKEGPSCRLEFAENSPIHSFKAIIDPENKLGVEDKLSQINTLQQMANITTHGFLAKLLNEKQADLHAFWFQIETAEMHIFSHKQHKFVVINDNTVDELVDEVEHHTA

Target: Ascaris lumbricoides β carbonic anhydrase (AlBCA) (Ascaris suum, UniProt F1LE18)
Assay: biochemical

CC(=O)Nc1nnc(S(N)(=O)=O)s1 [AAZ, 5-acetamido-1,3,4-thiadiazole-2-sulfonamide]
Ki: 84.1 ± 2.9 nM
